Patent publication US6846845B2, “Heat shock protein inducer” (Eisai Co., Ltd., priority 2002, dated 2005)

Tested on: isolated perfused heart
Assay: Isolated perfused heart experiments (Langendorff, no-flow global ischemia/reperfusion), Example 1
Type: in vivo, rat
Description: As mentioned above, 24 hours after administration of 200 mg/kg of GGA or the vehicle, rats were heparinized (500 IU/kg, i.p.) and anesthetized with pentobarbital (50 mg/kg, i.p.).
Each heart was isolated and reperfused using the Langendorff method with Krebs-Henseleit buffer (pH 7.4, [in mM] 118 NaCl, 4.7 KCl, 2.5 CaCl2, 1.2 MgSO4, 1.2 KH2PO4, 25.0 Na2HCO3, 11.0 glucose) equilibrated with a 95% O2, 5% CO2 gas mixture at 36.5° C., 75 mmHg (1.0×10^4 Pa).
A water-filled latex balloon was inserted through the mitral orifice into the left ventricle, and the left ventricular end diastolic pressure (LVEDP) was adjusted to 0-5 mmHg (0-667 Pa). During the first 10 minutes of constant pressure reperfusion, the perfusion flow rate was determined for each heart, and the hearts were then perfused at a determined perfusion rate using a microtube pump, during which time each heart was covered with water-jacketed glassware and humidity was maintained at 90% or more.
Normothermic no-flow global ischemia was performed for 20, 40 and 60 minutes, followed by reperfusion for 30 minutes. […] The ratio of released CK to heart weight was analyzed by unpaired t-test.
The peak position and negative first derivaties of left ventricular pressure (dP/dt max and dP/dt min) were monitored using a pressure transducer. […]

## CC(=O)CCC=C(C)CCC=C(C)CCC=C(C)CCC=C(C)C [GGA, 6, 10, 14, 18-tetramethyl-5,9, 13, 17-nonadecatetraen-2-one]
24 h after oral 200 mg/kg, no graph
  CPP or heart rate during reperfusion versus Control Group: no great difference
24 hours after oral 200 mg/kg, before ischemia
  data at the baseline period versus Control Group (Table 1 parameters): no differences
